From US8524691B2, “Phosphonated rifamycins and uses thereof for the prevention and treatment of bone and joint infections” (The Medicines Company, priority 2008, dated 2013)

test: Bone powder binding in vitro; details: 1 mg/ml compound, bone meal powder 10 mg/ml in PBS, 37° C., 1 h

Compound	% Bone binding
CCN(CC)CC.CCN(CC)CC.CO[C@H]1/C=C/O[C@@]2(C)Oc3c(C)c(O)c4c(c3C2=O)C2=NC3(CCN(CC(C)C)CC3)N(C(=O)OCc3ccc(OC(=O)CCCC(P(=O)(O)O)P(=O)(O)O)cc3)C2=C(NC(=O)/C(C)=C\C=C\[C@H](C)[C@H](O)[C@@H](C)[C@@H](O)[C@@H](C)[C@H](OC(C)=O)[C@@H]1C)C4=O [Compound 18]	98.4%
CO[C@H]1/C=C/O[C@@]2(C)Oc3c(C)c(O)c4c(c3C2=O)C2=NC3(CCN(CC(C)C)CC3)N(C(=O)OCc3cc(C)c(OC(=O)CCC(P(=O)(O)O)P(=O)(O)O)c(C)c3)C2=C(NC(=O)/C(C)=C\C=C\[C@H](C)[C@H](O)[C@@H](C)[C@@H](O)[C@@H](C)[C@H](OC(C)=O)[C@@H]1C)C4=O.N.N [Compound 19]	99.6%
CO[C@H]1/C=C/O[C@@]2(C)Oc3c(C)c(O)c4c(c3C2=O)C2=NC3(CCN(CC(C)C)CC3)N(C(=O)Oc3ccc(NC(=O)CCC(P(=O)(O)O)P(=O)(O)O)cc3)C2=C(NC(=O)/C(C)=C\C=C\[C@H](C)[C@H](O)[C@@H](C)[C@@H](O)[C@@H](C)[C@H](OC(C)=O)[C@@H]1C)C4=O [Compound 28]	99.7%
CO[C@H]1/C=C/O[C@@]2(C)Oc3c(C)c(O)c4c(c3C2=O)C2=NC3(CCN(CC(C)C)CC3)NC2=C(NC(=O)/C(C)=C\C=C\[C@H](C)[C@H](OC(=O)CN(C)CCOC(=O)CCC(P(=O)(O)O)P(=O)(O)O)[C@@H](C)[C@@H](O)[C@@H](C)[C@H](OC(C)=O)[C@@H]1C)C4=O [Compound 36]	99.7%
CCC(=O)OCOC(=O)N[C@@H](Cc1ccc(OCCCC(P(=O)(O)O)P(=O)(O)O)cc1)C(=O)N(C)CC(=O)O[C@@H]1[C@@H](C)[C@@H](O)[C@@H](C)[C@H](OC(C)=O)[C@H](C)[C@@H](OC)/C=C/O[C@@]2(C)Oc3c(C)c(O)c4c(c3C2=O)C2=NC3(CCN(CC(C)C)CC3)NC2=C(NC(=O)/C(C)=C\C=C\[C@@H]1C)C4=O.N.N [Compound 89]	99.8%
CCC(=O)OCOC(=O)N[C@@H](CCCCNC(=O)CCC(P(=O)(O)O)P(=O)(O)O)C(=O)N(C)CC(=O)O[C@@H]1[C@@H](C)[C@@H](O)[C@@H](C)[C@H](OC(C)=O)[C@H](C)[C@@H](OC)/C=C/O[C@@]2(C)Oc3c(C)c(O)c4c(c3C2=O)C2=NC3(CCN(CC(C)C)CC3)NC2=C(NC(=O)/C(C)=C\C=C\[C@@H]1C)C4=O.N.N [Compound 95]	99.8%
CCC(=O)OCOC(=O)N[C@@H](CCC(=O)NC(P(=O)(O)O)P(=O)(O)O)C(=O)N(C)CC(=O)O[C@@H]1[C@@H](C)[C@@H](O)[C@@H](C)[C@H](OC(C)=O)[C@H](C)[C@@H](OC)/C=C/O[C@@]2(C)Oc3c(C)c(O)c4c(c3C2=O)C2=NC3(CCN(CC(C)C)CC3)NC2=C(NC(=O)/C(C)=C\C=C\[C@@H]1C)C4=O [Compound 102]	99.8%
CCN(CC)CC.CO[C@H]1/C=C/O[C@@]2(C)Oc3c(C)c(O)c4c(c3C2=O)C2=NC3(CCN(CC(C)C)CC3)NC2=C(NC(=O)/C(C)=C\C=C\[C@H](C)[C@H](OC(=O)CN(C)C(=O)Nc2ccc(CC(P(=O)(O)O)P(=O)(O)O)cc2)[C@@H](C)[C@@H](O)[C@@H](C)[C@H](OC(C)=O)[C@@H]1C)C4=O [Compound 142b]	98.9%
